No constants are given. Whether binding was seen depends on the method and setting.
Target: keyhole limpet hemocyanin (KLH)
Experiment: SPR (Biacore X100), CRP flowed over KLH immobilised on a CM5 flow cell

binding: no binding
B1: C-reactive protein (CRP) (ligand, human, UniProt P02741 19-224, looked up)
chain: QTDMSRKAFVFPKESDTSYVSLKAPLTKPLKAFTVCLHFYTELSSTRGYSIFSYATKRQDNEILIFWSKDIGYSFTVGGSEILFEVPEVTVAPVHICTSWESASGIVEFWVDGKPRVRKSLKKGYTVGAEASIILGQEQDSFGGNFEGSQSLVGDIGNVNMWDFVLSPDEINTIYLGGPFSPNVLNWRALKYEVQGEVFTKPQLWP

— patent US20090202520A1
